Values of other authors in patent US20130324493A1, “COMPOSITIONS COMPRISING NINGNANMYCIN AND USES THEREFOR” (North Carolina State University, priority 2012, published 2013).
Where two headings read alike, the source gives them in different places.

Conditions: cited from earlier work

For `CNCC(=O)NC(CO)C(=O)NC1C(C(N)=O)OC(n2ccc(N)nc2=O)C(O)C1O` [ningnanmycin, 4-sarcosinamido-L-serinamido-4-deoxy-β-D-pyranoglucuronamido], the “Residues on treated crop and soil” value (Bean field soil) is listed as 0.0034 µg/mL, the “Residues on treated crop and soil” value (Bean) is listed as 0.0160 µg/mL and the “Residues on treated crop and soil” value (Cucumber field soil) is listed as “Undetectable”. For the same compound, the “Residues on treated crop and soil” value (Hay) was 0.1133 µg/mL, the “Residues on treated crop and soil” value (Husk) was 0.1113 µg/mL and the “Residues on treated crop and soil” value (Rice field soil) was 0.0003 µg/mL. The “Residues on treated crop and soil” value (Rice field water) was “Undetectable”, the “Residues on treated crop and soil” value (Rice grain) was 0.0350 µg/mL and the “Residues on treated crop and soil” value (Rice leaf) was 0.0952 µg/mL. For the same compound, the “Residues on treated crop and soil” value (Wheat grain) was 0.0002 µg/mL.
